Source: the supplement of paper PMC12067093, “Discovery and optimisation of a covalent ligand for TRIM25 and its application to targeted protein ubiquitination” (Chemical Science, 2025)
The other results are listed elsewhere or left out.

Amino acid sequences for entries named in this document (tags omitted). A change or cut given only in a name is not applied to a line headed by its entry.
UniProt O75164: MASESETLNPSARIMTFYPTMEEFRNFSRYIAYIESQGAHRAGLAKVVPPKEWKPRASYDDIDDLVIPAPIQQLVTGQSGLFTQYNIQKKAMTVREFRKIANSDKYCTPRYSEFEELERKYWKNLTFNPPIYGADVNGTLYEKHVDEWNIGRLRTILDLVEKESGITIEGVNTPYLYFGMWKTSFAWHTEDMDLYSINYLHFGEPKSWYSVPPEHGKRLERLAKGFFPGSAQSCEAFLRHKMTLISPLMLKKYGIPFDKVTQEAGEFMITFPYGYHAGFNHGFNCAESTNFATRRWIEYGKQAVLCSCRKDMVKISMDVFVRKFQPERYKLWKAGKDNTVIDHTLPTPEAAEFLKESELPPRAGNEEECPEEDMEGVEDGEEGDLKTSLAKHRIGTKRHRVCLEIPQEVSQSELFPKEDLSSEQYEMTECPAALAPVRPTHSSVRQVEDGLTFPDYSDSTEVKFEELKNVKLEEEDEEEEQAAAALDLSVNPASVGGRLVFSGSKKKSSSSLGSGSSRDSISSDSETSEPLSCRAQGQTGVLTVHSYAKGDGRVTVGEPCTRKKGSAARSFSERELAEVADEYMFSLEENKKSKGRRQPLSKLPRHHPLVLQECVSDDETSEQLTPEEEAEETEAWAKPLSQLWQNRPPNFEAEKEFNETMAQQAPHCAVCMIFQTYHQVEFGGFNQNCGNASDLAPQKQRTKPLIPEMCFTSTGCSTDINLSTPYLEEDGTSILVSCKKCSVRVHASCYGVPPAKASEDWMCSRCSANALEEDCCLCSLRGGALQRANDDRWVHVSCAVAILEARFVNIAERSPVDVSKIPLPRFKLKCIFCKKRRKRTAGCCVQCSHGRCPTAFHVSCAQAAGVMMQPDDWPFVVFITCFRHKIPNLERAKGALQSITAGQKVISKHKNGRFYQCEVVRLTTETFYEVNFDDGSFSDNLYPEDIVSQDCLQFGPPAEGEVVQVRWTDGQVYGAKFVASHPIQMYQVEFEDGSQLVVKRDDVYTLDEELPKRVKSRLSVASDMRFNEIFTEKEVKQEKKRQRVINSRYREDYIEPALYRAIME
UniProt Q9Y6Y0: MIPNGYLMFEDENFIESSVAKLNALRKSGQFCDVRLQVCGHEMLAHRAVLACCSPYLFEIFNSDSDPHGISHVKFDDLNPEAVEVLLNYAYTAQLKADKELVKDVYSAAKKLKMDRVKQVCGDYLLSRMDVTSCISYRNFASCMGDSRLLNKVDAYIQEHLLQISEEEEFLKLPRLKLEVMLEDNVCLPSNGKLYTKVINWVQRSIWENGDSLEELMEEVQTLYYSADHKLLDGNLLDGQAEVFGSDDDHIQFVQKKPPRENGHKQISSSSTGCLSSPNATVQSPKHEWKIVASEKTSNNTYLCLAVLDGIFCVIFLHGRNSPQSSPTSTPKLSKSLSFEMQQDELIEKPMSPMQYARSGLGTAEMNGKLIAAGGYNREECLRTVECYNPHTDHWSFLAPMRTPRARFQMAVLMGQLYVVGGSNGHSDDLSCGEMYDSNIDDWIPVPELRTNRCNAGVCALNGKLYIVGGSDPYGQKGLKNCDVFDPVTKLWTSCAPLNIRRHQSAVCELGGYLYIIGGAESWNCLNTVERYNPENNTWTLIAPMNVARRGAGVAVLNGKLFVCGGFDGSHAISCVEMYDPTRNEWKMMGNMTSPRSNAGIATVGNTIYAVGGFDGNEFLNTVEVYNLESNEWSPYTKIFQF
UniProt O15037: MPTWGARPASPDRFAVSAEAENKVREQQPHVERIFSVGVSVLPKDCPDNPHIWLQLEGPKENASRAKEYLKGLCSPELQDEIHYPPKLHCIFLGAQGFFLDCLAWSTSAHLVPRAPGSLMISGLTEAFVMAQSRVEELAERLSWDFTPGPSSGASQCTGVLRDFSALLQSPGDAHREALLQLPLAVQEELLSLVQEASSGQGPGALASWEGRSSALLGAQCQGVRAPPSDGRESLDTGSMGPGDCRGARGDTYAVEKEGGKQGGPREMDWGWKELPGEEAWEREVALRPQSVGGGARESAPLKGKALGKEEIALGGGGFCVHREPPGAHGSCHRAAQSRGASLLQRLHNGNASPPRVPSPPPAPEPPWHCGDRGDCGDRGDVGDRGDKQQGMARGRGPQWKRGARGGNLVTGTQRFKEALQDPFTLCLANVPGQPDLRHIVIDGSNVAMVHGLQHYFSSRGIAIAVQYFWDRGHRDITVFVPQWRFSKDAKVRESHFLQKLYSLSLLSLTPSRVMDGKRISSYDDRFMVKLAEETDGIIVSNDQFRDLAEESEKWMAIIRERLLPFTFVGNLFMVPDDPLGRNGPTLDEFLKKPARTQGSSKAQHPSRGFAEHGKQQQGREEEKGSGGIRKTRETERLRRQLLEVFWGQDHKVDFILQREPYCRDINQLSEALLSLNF
UniProt O76095: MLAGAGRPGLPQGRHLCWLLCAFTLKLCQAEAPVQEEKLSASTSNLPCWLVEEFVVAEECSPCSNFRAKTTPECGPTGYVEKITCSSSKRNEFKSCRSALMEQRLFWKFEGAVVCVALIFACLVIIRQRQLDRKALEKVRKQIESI
UniProt P52732: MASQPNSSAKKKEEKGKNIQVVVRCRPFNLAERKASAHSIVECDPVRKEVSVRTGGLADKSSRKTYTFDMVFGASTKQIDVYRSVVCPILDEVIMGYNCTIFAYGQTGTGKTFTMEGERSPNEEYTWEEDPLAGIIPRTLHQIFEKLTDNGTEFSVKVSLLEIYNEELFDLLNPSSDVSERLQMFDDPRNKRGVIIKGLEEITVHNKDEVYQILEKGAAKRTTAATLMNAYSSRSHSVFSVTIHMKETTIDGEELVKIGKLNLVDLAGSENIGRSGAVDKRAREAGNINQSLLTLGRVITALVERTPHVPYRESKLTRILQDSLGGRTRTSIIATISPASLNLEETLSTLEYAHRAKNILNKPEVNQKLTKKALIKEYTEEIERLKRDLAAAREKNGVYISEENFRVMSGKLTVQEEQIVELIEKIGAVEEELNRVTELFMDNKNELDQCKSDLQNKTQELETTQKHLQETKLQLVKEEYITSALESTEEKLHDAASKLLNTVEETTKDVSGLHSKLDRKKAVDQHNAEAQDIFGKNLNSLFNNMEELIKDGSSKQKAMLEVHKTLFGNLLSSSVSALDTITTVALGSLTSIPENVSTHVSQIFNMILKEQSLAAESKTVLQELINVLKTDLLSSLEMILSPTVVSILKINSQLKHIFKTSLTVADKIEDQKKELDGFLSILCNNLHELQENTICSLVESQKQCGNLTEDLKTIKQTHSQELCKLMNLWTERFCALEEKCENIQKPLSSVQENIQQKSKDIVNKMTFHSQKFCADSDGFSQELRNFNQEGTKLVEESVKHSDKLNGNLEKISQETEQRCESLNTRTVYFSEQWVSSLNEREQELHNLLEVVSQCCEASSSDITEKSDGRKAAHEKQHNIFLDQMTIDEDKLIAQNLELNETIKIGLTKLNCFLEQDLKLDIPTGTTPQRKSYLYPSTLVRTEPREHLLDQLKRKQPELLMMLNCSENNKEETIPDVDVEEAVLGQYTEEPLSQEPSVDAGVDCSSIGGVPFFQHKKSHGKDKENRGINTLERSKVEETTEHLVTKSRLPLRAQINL
UniProt Q8IYS2: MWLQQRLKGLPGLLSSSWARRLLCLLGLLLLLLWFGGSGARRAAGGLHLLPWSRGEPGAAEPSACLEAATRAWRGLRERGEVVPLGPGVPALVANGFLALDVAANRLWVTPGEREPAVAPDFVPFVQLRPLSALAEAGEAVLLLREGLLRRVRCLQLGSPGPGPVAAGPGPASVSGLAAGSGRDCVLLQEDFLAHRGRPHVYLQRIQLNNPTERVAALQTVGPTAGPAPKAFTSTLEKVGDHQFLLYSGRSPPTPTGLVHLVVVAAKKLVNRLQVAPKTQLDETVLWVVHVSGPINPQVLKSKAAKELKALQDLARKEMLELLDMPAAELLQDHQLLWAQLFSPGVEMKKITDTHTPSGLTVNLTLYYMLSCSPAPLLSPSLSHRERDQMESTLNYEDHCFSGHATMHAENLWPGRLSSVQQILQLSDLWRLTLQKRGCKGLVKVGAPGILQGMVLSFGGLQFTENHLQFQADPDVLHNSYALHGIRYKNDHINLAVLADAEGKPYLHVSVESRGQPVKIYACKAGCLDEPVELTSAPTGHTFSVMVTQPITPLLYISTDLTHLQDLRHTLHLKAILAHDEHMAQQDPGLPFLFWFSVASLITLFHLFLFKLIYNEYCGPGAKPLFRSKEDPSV
UniProt O94819: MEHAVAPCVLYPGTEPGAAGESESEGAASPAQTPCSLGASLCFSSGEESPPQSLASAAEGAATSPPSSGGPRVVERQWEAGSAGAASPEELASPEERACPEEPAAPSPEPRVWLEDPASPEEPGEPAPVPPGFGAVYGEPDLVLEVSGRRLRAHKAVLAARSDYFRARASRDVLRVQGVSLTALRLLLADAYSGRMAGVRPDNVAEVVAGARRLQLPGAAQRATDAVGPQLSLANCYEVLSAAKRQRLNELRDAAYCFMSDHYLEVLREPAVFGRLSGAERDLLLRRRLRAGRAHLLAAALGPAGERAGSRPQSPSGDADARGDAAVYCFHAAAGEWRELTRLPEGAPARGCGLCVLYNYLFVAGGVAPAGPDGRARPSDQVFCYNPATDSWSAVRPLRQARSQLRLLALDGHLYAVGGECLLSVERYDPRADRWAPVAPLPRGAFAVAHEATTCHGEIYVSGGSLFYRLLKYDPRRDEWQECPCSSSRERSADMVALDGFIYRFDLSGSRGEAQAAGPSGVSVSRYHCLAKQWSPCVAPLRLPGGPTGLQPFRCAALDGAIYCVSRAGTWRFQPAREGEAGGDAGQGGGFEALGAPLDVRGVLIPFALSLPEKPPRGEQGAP
UniProt Q14145, whole entry, looked up: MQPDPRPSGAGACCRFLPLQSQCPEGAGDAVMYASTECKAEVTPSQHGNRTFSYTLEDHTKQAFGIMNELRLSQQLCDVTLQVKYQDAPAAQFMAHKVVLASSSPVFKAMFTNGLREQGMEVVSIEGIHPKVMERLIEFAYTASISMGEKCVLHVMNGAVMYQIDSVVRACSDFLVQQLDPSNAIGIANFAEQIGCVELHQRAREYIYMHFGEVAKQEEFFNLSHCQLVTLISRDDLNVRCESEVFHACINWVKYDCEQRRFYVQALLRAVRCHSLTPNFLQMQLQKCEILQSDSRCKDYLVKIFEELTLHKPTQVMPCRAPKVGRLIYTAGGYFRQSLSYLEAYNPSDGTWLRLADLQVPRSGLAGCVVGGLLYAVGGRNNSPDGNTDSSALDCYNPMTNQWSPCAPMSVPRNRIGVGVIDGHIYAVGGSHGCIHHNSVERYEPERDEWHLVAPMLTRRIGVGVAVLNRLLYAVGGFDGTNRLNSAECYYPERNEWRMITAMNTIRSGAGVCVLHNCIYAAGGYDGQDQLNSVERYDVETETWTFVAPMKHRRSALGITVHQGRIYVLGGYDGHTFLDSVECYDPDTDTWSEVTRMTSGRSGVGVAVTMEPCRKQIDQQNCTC
UniProt Q6UW63: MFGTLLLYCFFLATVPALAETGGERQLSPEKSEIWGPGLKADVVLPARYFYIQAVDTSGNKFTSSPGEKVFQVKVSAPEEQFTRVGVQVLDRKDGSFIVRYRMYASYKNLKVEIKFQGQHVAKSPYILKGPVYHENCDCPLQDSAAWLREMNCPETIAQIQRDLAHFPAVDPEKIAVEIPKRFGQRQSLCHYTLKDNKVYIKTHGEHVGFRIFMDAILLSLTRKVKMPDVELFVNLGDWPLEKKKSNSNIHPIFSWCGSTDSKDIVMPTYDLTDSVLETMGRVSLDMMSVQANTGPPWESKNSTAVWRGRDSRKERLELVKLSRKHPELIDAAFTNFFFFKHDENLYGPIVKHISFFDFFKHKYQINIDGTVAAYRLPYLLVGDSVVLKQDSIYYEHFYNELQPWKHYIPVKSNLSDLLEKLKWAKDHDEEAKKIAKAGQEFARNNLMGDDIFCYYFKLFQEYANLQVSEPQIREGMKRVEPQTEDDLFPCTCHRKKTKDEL
UniProt P26440: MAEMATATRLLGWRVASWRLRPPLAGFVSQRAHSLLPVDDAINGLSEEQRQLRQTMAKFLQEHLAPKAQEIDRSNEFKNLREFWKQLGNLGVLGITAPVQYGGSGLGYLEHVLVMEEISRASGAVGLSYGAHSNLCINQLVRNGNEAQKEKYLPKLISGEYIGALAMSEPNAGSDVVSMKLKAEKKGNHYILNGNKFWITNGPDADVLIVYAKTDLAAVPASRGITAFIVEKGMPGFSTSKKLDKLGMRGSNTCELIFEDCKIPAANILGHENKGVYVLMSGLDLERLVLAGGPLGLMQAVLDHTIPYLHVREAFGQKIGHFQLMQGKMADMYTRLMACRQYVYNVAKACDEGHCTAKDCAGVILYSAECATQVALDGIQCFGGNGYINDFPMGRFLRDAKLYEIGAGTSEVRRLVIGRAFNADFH

Compound: Cc1cc(ccc1-c1ccccc1)C(=O)N1CCCN(CC1)C(=O)CCl [compound 10]
Experiment: probe-labelled cysteine peptide fold change vs DMSO (competition) (log2 fold change); higher = less target engagement (more negative = stronger competition)
Settings: THP-1, incubation time: 4 h
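Note: competitive profiling in live THP-1 cells: cysteine peptides tagged with an iodoacetamide desthiobiotin (IA-DTB) probe, intensity after compound treatment relative to DMSO-treated cells.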

Target	probe-labelled cysteine peptide fold change (10 µM)	probe-labelled cysteine peptide fold change (50 µM)
KATNB1_Q9BVA0_43_LLATGGDDCR (UniProt Q9BVA0)	0.0377	-0.00712
JMJD1C_Q15652_990_DCHLHR (UniProt Q15652)	-0.57	-0.573
JMJD6_Q6NYC1_207_RWCLFPTSTPR (UniProt Q6NYC1)	-0.0774	0.248
KDM5C_P41229_707_EAFELLPDDERQCIK (UniProt P41229)	-0.00949	-0.0329
KIF20B_Q96Q89_1642_HPGCTTPVTVK (UniProt Q96Q89)	-0.0176	0.000338
KDM4A_O75164_560_VTVGEPCTR (UniProt O75164)	-0.0449	-0.228
KDM3A_Q9Y4C1_225_TLQVNCEEIPALK (UniProt Q9Y4C1)	-0.098	0.103
ITPR1_Q14643_1439_IAYINFLNHCYVDTEVEMK (UniProt Q14643)	0.193	0.305
JAK1_P23458_716_DLVHGNVCTK (UniProt P23458)	-0.1	-0.321
ITSN2_Q9NZM3_1429_ENSDRLEWIQAHVQCEGLAEQLIFNSLTNCLGPR (UniProt Q9NZM3)	-0.354	0.285
KIF15_Q9NS87_1062_DMLCEDLAHATEQLNMLTEASK (UniProt Q9NS87)	0.064	0.149
IVNS1ABP_Q9Y6Y0_454_CNAGVCALNGK (UniProt Q9Y6Y0)	-0.193	-0.382
JUP_P14923_457_AGDKDDITEPAVCALR (UniProt P14923)	-0.117	0.0142
KIF13B_Q9NQT8_870_LVCMVK (UniProt Q9NQT8)	0.159	0.257
KDM2A_Q9Y2K7_840_VLVQHCPAR (UniProt Q9Y2K7)	0.0814	-0.36
ITSN2_Q9NZM3_907_AQALCSWTAK (UniProt Q9NZM3)	-0.295	-0.181
KIF13B_Q9NQT8_1234_AEASWDSAVHGCPQLSR (UniProt Q9NQT8)	0.0263	-0.115
KAT5_Q92993_234_NIECIELGR (UniProt Q92993)	-0.0819	-0.0446
KAT14_Q9H8E8_478_RLEACPGAVAMTPEAR (UniProt Q9H8E8)	-0.0452	0.144
KHNYN_O15037_245_ESLDTGSMGPGDCR (UniProt O15037)	-0.26	-0.469
KARS_Q15046_209_KGELSIIPYEITLLSPCLHMLPHLHFGLK (UniProt Q15046)	-0.0106	0.107
KANK2_Q63ZY3_389_SQEVVETMCPVPAAATSNVHMVK (UniProt Q63ZY3)	-0.23	-0.183
JAK1_P23458_731_EGIDSECGPFIK (UniProt P23458)	-0.199	-0.268

Target	probe-labelled cysteine peptide fold change (10 µM)	probe-labelled cysteine peptide fold change (50 µM)
JTB_O76095_85_ITCSSSK (UniProt O76095)	-0.38	-0.208
KIDINS220_Q9ULH0_1250_VLAQCNIDELKK (UniProt Q9ULH0)	0.165	0.176
ITSN2_Q9NZM3_1414_ENSDRLEWIQAHVQCEGLAEQLIFNSLTNCLGPR (UniProt Q9NZM3)	0.173	0.325
KIF11_P52732_43_ASAHSIVECDPVRK (UniProt P52732)	-0.00202	0.0726
KIF11_P52732_740_CENIQK (UniProt P52732)	-0.103	-0.0778
KCMF1_Q9P0J7_54_HTTDHPMQCILTR (UniProt Q9P0J7)	0.166	-0.0382
KDM5A_P29375_1409_SCSQGSSTPR (UniProt P29375)	0.0454	-0.464
KDM3A_Q9Y4C1_1009_EFGEQEVDLVNCR (UniProt Q9Y4C1)	0.0163	-0.0908
KDM5C_P41229_267_EGPECPPTVVVK (UniProt P41229)	-0.2	0.0842
KIAA2013_Q8IYS2_185_DCVLLQEDFLAHR (UniProt Q8IYS2)	0.0174	0.278
ITPR1_Q14643_768_CMSDENLPYDLR (UniProt Q14643)	-0.0658	0.226
KBTBD11_O94819_421_LLALDGHLYAVGGECLLSVER (UniProt O94819)	0.0221	0.0279
ITPR1_Q14643_530_LLQAPFTDCGDGPMLR (UniProt Q14643)	-0.345	-0.0978
KEAP1_Q14145_77_LSQQLCDVTLQVK (UniProt Q14145)	0.124	0.0543
KDELC1_Q6UW63_257_SNSNIHPIFSWCGSTDSK (UniProt Q6UW63)	0.142	0.253
KIF22_Q14807_575_AEDCWELQISPELLAHGR (UniProt Q14807)	0.244	0.25
KCNAB2_Q13303_248_IGVGAMTWSPLACGIVSGK (UniProt Q13303)	-0.111	-0.222
KDM1A_O60341_618+623_CDAVLCTLPLGVLK (UniProt O60341)	0.15	0.245
KBTBD11_O94819_485_RDEWQECPCSSSR (UniProt O94819)	0.0591	-0.354
ITPR1_Q14643_1394_MDENSPLMYHIHLVELLAVCTEGK (UniProt Q14643)	0.39	0.358
KIF20A_O95235_487_SCMIVNVNPCASTYDETLHVAK (UniProt O95235)	0.182	0.175
KDM4A_O75164_798_ANDDRWVHVSCAVAILEAR (UniProt O75164)	0.175	-0.15
KDM2B_Q8NHM5_651_QCIAPVLPHTAVCLVCGEAGKEDTVEEEEGK (UniProt Q8NHM5)	-0.144	-0.255

Rewritten as a markdown table: entries from further up

| Target | probe-labelled cysteine peptide fold change (10 µM) | probe-labelled cysteine peptide fold change (50 µM) |
| --- | --- | --- |
| KDM5C_P41229_267_EGPECPPTVVVK (UniProt P41229) | -0.2 | 0.0842 |
| KIAA2013_Q8IYS2_185_DCVLLQEDFLAHR (UniProt Q8IYS2) | 0.0174 | 0.278 |

Later entries

Target	probe-labelled cysteine peptide fold change (10 µM)	probe-labelled cysteine peptide fold change (50 µM)
ITPR2_Q14571_1246_MNEVMNLAHTFLQNFCR (UniProt Q14571)	0.0121	0.0144
KDELC1_Q6UW63_491+493_VEPQTEDDLFPCTCHR (UniProt Q6UW63)	-0.399	0.5
KDM1A_O60341_600_YTASGCEVIAVNTR (UniProt O60341)	0.0882	0.335
KHNYN_O15037_46_DCPDNPHIWLQLEGPK (UniProt O15037)	-0.0262	-0.604
KDM5A_P29375_838_AFVQQLFSLPCVISQAR (UniProt P29375)	-0.502	-0.298
KDM5A_P29375_709_LVCLYHPTDLCPCPMQK (UniProt P29375)	0.0981	-0.145
KIAA0100_Q14667_471_GVLTVDHLCWR (UniProt Q14667)	0.0373	0.124
IVNS1ABP_Q9Y6Y0_495_LWTSCAPLNIR (UniProt Q9Y6Y0)	0.117	-0.21
KDM1A_O60341_573_NGYSCVPVALAEGLDIK (UniProt O60341)	-0.0155	0.182
IVD_P26440_136_ASGAVGLSYGAHSNLCINQLVR (UniProt P26440)	-0.0146	-0.051
KDM4B_O94953_13_GSEDHGAQNPSCK (UniProt O94953)	-0.0382	-0.113
KDM1A_O60341_491_DLTALCK (UniProt O60341)	0.0807	0.00467
JADE1_Q6IE81_258+261_CLLCPK (UniProt Q6IE81)	0.21	-0.261
KDM2B_Q8NHM5_699_FNLMLMECSICNEIIHPGCLK (UniProt Q8NHM5)	0.00171	0.0507
KEAP1_Q14145_226_QEEFFNLSHCQLVTLISR (UniProt Q14145)	0.249	0.138
KAT5_Q92993_317_SYSQNLCLLAK (UniProt Q92993)	0.183	0.0984
KIDINS220_Q9ULH0_412_AGETPYNIDCSHQK (UniProt Q9ULH0)	-0.0994	-0.102
KAT2A_Q92830_653_DYEGATLMECELNPR (UniProt Q92830)	-0.00417	0.173
KANK1_Q14678_589_SVEMCDK (UniProt Q14678)	0.0398	0.202
KIF15_Q9NS87_999_TSVCEK (UniProt Q9NS87)	-0.0462	-0.141
KDM3B_Q7LBC6_904_QSGEPFLQDGSCINVAPHLHK (UniProt Q7LBC6)	0.0265	-0.103
IVD_P26440_350+355_ACDEGHCTAK (UniProt P26440)	0.415	-0.227
